{"source": "PubChem BioAssay AID493246 (Drosophila RNAi Screening Center, 2011)", "aim": "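Genome-wide search for dsRNAs that reduce cell number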 (primary screen)", "system": "Drosophila Kc and S2R+ cells", "knock-down reagent": "long dsRNA against Drosophila genes", "measurement": "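Raw, unnormalised count of remaining cells in each well; per-plate z-scores of cell number underlie the calls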", "reading the numbers": "Kc cell number and S2R+ cell number: higher = more cells remaining", "rule for the call": "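Counted as a hit if cell number falls by a z-score of at least 3 within its plate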", "note": "The screen tested about 21,000 reagents; shown is a random part of those that have a named target and a result. In the full data, 429 (2%) were called active. 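Values are raw and not normalised between plates; calls rest on per-plate z-scores that were not deposited.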 Reagent sequences are not shown. The record does not give: the amount of reagent, the time to read-out."}
The opening 3 records, to show the layout:
{"Target gene": "rho-4 (GeneID 32109)", "DRSC id": "DRSC19761", "Kc cell number, rep 1": 5.97e5, "S2R+ cell number, rep 1": 7.91e5, "Outcome": "inactive"}
{"Target gene": "rho-4 (GeneID 32109)", "DRSC id": "DRSC19762", "Kc cell number, rep 1": 1.58e6, "Kc cell number, rep 2": 1.61e6, "S2R+ cell number, rep 1": 1.05e6, "S2R+ cell number, rep 2": 1.19e6, "Outcome": "inactive"}
{"Target gene": "CG10553 (GeneID 43064)", "DRSC id": "DRSC14254", "Kc cell number, rep 1": 1.78e6, "Kc cell number, rep 2": 1.86e6, "S2R+ cell number, rep 1": 1.03e6, "S2R+ cell number, rep 2": 1.10e6, "Outcome": "inactive"}

The list itself, from the start:
{"Target gene": "rho-4 (GeneID 32109)", "DRSC id": "DRSC19761", "Kc cell number, rep 1": 5.97e5, "S2R+ cell number, rep 1": 7.91e5, "Outcome": "inactive"}
{"Target gene": "rho-4 (GeneID 32109)", "DRSC id": "DRSC19762", "Kc cell number, rep 1": 1.58e6, "Kc cell number, rep 2": 1.61e6, "S2R+ cell number, rep 1": 1.05e6, "S2R+ cell number, rep 2": 1.19e6, "Outcome": "inactive"}
{"Target gene": "CG10553 (GeneID 43064)", "DRSC id": "DRSC14254", "Kc cell number, rep 1": 1.78e6, "Kc cell number, rep 2": 1.86e6, "S2R+ cell number, rep 1": 1.03e6, "S2R+ cell number, rep 2": 1.10e6, "Outcome": "inactive"}
{"Target gene": "CG15561 (GeneID 43692)", "DRSC id": "DRSC15100", "Kc cell number, rep 1": 1.77e6, "Kc cell number, rep 2": 1.80e6, "S2R+ cell number, rep 1": 1.13e6, "S2R+ cell number, rep 2": 1.28e6, "Outcome": "inactive"}
{"Target gene": "CG15767 (GeneID 31508)", "DRSC id": "DRSC18073", "Kc cell number, rep 1": 1.43e6, "Kc cell number, rep 2": 1.46e6, "S2R+ cell number, rep 1": 8.81e5, "S2R+ cell number, rep 2": 9.97e5, "Outcome": "inactive"}
{"Target gene": "CG17109 (GeneID 42730)", "DRSC id": "DRSC15172", "Kc cell number, rep 1": 1.42e6, "Kc cell number, rep 2": 1.49e6, "S2R+ cell number, rep 1": 1.01e6, "S2R+ cell number, rep 2": 1.09e6, "Outcome": "inactive"}
{"Target gene": "kl-5 (retired record) (GeneID 3355175)", "DRSC id": "DRSC20707", "Kc cell number, rep 1": 1.59e6, "Kc cell number, rep 2": 1.58e6, "S2R+ cell number, rep 1": 1.12e6, "S2R+ cell number, rep 2": 1.20e6, "Outcome": "inactive"}
{"Target gene": "kl-5 (retired record) (GeneID 3355175)", "DRSC id": "DRSC20736", "Kc cell number, rep 1": 1.26e6, "Kc cell number, rep 2": 1.47e6, "S2R+ cell number, rep 1": 1.17e6, "S2R+ cell number, rep 2": 1.07e6, "Outcome": "inactive"}
{"Target gene": "kl-5 (retired record) (GeneID 3355175)", "DRSC id": "DRSC20773", "Kc cell number, rep 1": 1.19e6, "Kc cell number, rep 2": 1.47e6, "S2R+ cell number, rep 1": 1.12e6, "S2R+ cell number, rep 2": 1.18e6, "Outcome": "inactive"}
{"Target gene": "kl-5 (retired record) (GeneID 3355175)", "DRSC id": "DRSC21161", "Kc cell number, rep 1": 1.60e6, "Kc cell number, rep 2": 1.62e6, "S2R+ cell number, rep 1": 1.06e6, "S2R+ cell number, rep 2": 1.19e6, "Outcome": "inactive"}
{"Target gene": "DIP-iota (GeneID 33925)", "DRSC id": "DRSC02140", "Kc cell number, rep 1": 1.49e6, "Kc cell number, rep 2": 1.40e6, "S2R+ cell number, rep 1": 1.16e6, "S2R+ cell number, rep 2": 1.25e6, "Outcome": "inactive"}
{"Target gene": "Mpp6 (GeneID 35382)", "DRSC id": "DRSC03169", "Kc cell number, rep 1": 1.49e6, "Kc cell number, rep 2": 1.68e6, "S2R+ cell number, rep 1": 1.34e6, "S2R+ cell number, rep 2": 3.42e5, "Outcome": "inactive"}
{"Target gene": "TyrRS-m (GeneID 37965)", "DRSC id": "DRSC04286", "Kc cell number, rep 1": 1.31e6, "Kc cell number, rep 2": 1.39e6, "S2R+ cell number, rep 1": 1.03e6, "S2R+ cell number, rep 2": 1.05e6, "Outcome": "inactive"}
{"Target gene": "Gmd (GeneID 33716)", "DRSC id": "DRSC03119", "Kc cell number, rep 1": 1.30e6, "Kc cell number, rep 2": 1.35e6, "S2R+ cell number, rep 1": 6.49e5, "S2R+ cell number, rep 2": 6.97e5, "Outcome": "inactive"}
{"Target gene": "Jon65Aiii (GeneID 38683)", "DRSC id": "DRSC10649", "Kc cell number, rep 1": 1.37e6, "Kc cell number, rep 2": 1.48e6, "S2R+ cell number, rep 1": 1.30e6, "S2R+ cell number, rep 2": 1.15e6, "Outcome": "inactive"}
{"Target gene": "CG6607 (GeneID 42925)", "DRSC id": "DRSC16073", "Kc cell number, rep 1": 1.43e6, "Kc cell number, rep 2": 1.70e6, "S2R+ cell number, rep 1": 1.10e6, "S2R+ cell number, rep 2": 1.20e6, "Outcome": "inactive"}
{"Target gene": "CG5850 (GeneID 34327)", "DRSC id": "DRSC02905", "Kc cell number, rep 1": 1.28e6, "Kc cell number, rep 2": 1.30e6, "S2R+ cell number, rep 1": 1.10e6, "S2R+ cell number, rep 2": 1.21e6, "Outcome": "inactive"}
{"Target gene": "alpha-Est9 (GeneID 40897)", "DRSC id": "DRSC12621", "Kc cell number, rep 1": 1.47e6, "Kc cell number, rep 2": 1.58e6, "S2R+ cell number, rep 1": 1.23e6, "S2R+ cell number, rep 2": 1.25e6, "Outcome": "inactive"}
{"Target gene": "NimA (GeneID 318930)", "DRSC id": "DRSC01353", "Kc cell number, rep 1": 1.60e6, "Kc cell number, rep 2": 1.67e6, "S2R+ cell number, rep 1": 9.34e5, "S2R+ cell number, rep 2": 1.17e6, "Outcome": "inactive"}
{"Target gene": "CG31730 (GeneID 318920)", "DRSC id": "DRSC01308", "Kc cell number, rep 1": 1.43e6, "Kc cell number, rep 2": 1.52e6, "S2R+ cell number, rep 1": 1.00e6, "S2R+ cell number, rep 2": 1.10e6, "Outcome": "inactive"}
{"Target gene": "ind (GeneID 2768974)", "DRSC id": "DRSC11355", "Kc cell number, rep 1": 1.24e6, "Kc cell number, rep 2": 1.11e6, "S2R+ cell number, rep 1": 5.92e5, "S2R+ cell number, rep 2": 7.58e5, "Outcome": "active"}
{"Target gene": "PIG-U (GeneID 34185)", "DRSC id": "DRSC02193", "Kc cell number, rep 1": 1.23e6, "Kc cell number, rep 2": 1.09e6, "S2R+ cell number, rep 1": 7.61e5, "S2R+ cell number, rep 2": 7.47e5, "Outcome": "inactive"}
{"Target gene": "CG6763 (GeneID 42754)", "DRSC id": "DRSC16110", "Kc cell number, rep 1": 1.40e6, "Kc cell number, rep 2": 1.40e6, "S2R+ cell number, rep 1": 1.02e6, "S2R+ cell number, rep 2": 1.13e6, "Outcome": "inactive"}
{"Target gene": "CG3168 (GeneID 31612)", "DRSC id": "DRSC18287", "Kc cell number, rep 1": 5.19e5, "S2R+ cell number, rep 1": 8.12e5, "Outcome": "inactive"}
{"Target gene": "Cdk8 (GeneID 39157)", "DRSC id": "DRSC11113", "Kc cell number, rep 1": 1.19e6, "Kc cell number, rep 2": 1.25e6, "S2R+ cell number, rep 1": 1.16e6, "S2R+ cell number, rep 2": 8.79e5, "Outcome": "inactive"}
{"Target gene": "CG12517 (GeneID 34506)", "DRSC id": "DRSC02173", "Kc cell number, rep 1": 1.58e6, "Kc cell number, rep 2": 1.61e6, "S2R+ cell number, rep 1": 1.11e6, "S2R+ cell number, rep 2": 1.21e6, "Outcome": "inactive"}
{"Target gene": "CG11906 (GeneID 37209)", "DRSC id": "DRSC06096", "Kc cell number, rep 1": 1.74e6, "Kc cell number, rep 2": 1.78e6, "S2R+ cell number, rep 1": 1.37e6, "S2R+ cell number, rep 2": 1.55e6, "Outcome": "inactive"}
